Experimental data: US20040071768A1, “Compositions and methods for treating cancer” (Inex Pharmaceuticals Corporation, priority 1999, published 2004)

Test system: MDA-MB-435 breast xenografts
Method: Female NCr nude mice were injected intravenously (q7dx3, beginning day 15) via the lateral tail vein. […] Paclitaxel (⋄) was prepared in […]/12.5% ethanol/75% saline and injected iv (q1dx5) at a dose of 15 mg/kg/dose. Drug-to-lipid ratio was 0.3/1 (w/w). Data points represent median tumor volume (n=6).
The anti-tumor activity of multiple (q7d3) dose schedules of liposomal vinorelbine was evaluated in several human xenograft tumor models. The goal of this series of studies was to identify the benefits of encapsulation by evaluating a series of doses and determining the therapeutic index in several xenograft models. Models were selected based on the following criteria: (1) activity in the single dose studies, (2) a comprehensive literature review of vinca alkaloid efficacy, (3) a desire to include at least 2-3 models that represent the clinical use of vinorelbine, and (4) a desire to include models with a range of sensitivity to vinorelbine so that improvements resulting from the use of the liposome formulation might be identified. Based on these criteria, MX-1 and MDA-MB-435 breast models, the NCl-H460 NSCLC model and the HT-29 and DLD-1 colon models were chosen.
Therapeutic index (TI) is a parameter that quantifies the “safety factor” of a particular therapy. TI is a ratio of a toxicity parameter and a biological activity parameter. […]

## CCC1=C[C@@H]2CN(C1)Cc1c([nH]c3ccccc13)[C@@](C(=O)OC)(c1cc3c(cc1OC)N(C)[C@H]1[C@@](O)(C(=O)OC)[C@H](OC(C)=O)[C@]4(CC)C=CCN5CC[C@]31[C@@H]54)C2 [VRL, 5′-noranhydrovinblastine]
MDA-MB-435 (breast), i.v. q7d x 3, MED at % T/C = 40
  TIFree (therapeutic index, TI = MTD/MED): 10.0
MDA-MB-435 breast model, q7dx3
  TI: ~10
